Paper PMC12060179
No constants are given. Whether binding was seen depends on the method and setting. Some binding calls cover weakened binding; strength is not graded here.

Protein sequences, listed by entry. Tags and fused reporters are not part of them.
UniProt P41091: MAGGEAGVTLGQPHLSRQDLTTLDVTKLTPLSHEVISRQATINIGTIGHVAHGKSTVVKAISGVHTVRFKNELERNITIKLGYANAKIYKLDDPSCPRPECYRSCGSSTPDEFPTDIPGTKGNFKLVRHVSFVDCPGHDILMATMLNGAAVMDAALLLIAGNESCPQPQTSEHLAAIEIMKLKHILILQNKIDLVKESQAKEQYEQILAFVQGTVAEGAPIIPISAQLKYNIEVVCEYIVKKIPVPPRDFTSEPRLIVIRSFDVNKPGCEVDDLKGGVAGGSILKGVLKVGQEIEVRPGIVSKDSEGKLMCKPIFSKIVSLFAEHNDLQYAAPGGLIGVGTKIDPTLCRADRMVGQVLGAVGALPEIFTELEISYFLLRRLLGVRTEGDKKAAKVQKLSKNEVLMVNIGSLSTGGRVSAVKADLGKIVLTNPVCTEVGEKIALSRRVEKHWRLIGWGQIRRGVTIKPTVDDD
UniProt P06730: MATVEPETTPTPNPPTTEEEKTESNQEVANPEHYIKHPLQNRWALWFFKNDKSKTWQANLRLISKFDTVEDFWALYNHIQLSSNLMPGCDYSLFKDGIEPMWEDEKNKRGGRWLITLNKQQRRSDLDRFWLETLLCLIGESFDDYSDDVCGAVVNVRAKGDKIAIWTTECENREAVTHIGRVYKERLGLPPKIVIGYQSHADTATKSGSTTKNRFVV

Experiments:
[1] = target: T1, YTHDF1 (in vitro pull-down) (human) (UniProt Q9BYJ9); assay: pull-down; in vitro pull-down; bait and conditions not told in what was shown; both purified
T1 sequence: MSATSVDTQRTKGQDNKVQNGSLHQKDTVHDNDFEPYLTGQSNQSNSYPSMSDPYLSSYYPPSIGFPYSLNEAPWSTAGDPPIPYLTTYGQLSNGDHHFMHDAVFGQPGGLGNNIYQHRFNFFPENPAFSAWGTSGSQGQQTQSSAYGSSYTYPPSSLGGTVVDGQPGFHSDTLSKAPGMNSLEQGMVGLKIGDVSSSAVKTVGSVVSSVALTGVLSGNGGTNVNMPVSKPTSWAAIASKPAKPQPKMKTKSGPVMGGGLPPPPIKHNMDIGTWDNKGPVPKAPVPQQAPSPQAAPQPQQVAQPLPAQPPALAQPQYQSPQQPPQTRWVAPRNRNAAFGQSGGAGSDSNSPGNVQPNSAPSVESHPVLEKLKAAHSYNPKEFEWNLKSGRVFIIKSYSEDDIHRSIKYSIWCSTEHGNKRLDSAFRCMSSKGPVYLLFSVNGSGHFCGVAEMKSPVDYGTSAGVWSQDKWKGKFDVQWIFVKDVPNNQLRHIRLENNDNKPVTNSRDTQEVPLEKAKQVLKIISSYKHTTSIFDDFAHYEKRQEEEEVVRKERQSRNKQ

[2] = target: T2, YTHDF3 (in vitro pull-down) (UniProt Q7Z739); assay: as above
T2 sequence: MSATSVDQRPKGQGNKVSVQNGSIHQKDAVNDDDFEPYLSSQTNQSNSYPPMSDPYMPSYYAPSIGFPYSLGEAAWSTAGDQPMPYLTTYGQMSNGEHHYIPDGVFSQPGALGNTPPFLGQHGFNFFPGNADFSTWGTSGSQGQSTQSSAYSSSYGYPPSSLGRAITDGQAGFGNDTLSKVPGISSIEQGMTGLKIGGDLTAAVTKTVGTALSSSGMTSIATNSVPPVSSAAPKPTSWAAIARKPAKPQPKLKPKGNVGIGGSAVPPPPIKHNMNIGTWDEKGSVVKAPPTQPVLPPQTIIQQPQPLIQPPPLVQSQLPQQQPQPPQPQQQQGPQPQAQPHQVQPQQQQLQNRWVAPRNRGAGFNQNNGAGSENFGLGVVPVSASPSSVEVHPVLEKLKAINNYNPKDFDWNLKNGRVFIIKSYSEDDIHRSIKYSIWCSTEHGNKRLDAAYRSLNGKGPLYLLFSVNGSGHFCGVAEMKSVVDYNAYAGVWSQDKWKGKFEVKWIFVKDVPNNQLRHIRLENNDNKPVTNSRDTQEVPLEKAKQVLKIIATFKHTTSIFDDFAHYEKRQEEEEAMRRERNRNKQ

For “EIF2S3 (in vitro pull-down) (from UniProt P41091 1-472)”, the binding [1] was “binds” and the binding [2] was “binds”.

EIF4E (from UniProt P06730 1-217) was tested, and the binding [1] was “binds” and the binding [2] was “binds”.
